Assay results from publication PMC3437492 (British Journal of Pharmacology, 2012).

Tested on: P. falciparum-infected erythrocytes
Experiment: Total choline entry into P. falciparum-infected erythrocytes
Type: cell-based
Details: 150 µM furosemide, 8 min pre-incubation

NS(=O)(=O)c1cc(C(=O)O)c(NCc2ccco2)cc1Cl [furosemide, reference compound]
Effect on choline uptake into IRBC: markedly decreased
